In article PMC6548137:
No constants are given. Whether binding was seen depends on the method and setting. Binding can be weak; no strength is given. For some assays here: Sequences can lack the tags named with a protein.

The chains behind the UniProt entries cited, without tags or fusion partners. Where a name states a change or a piece, a line headed by the entry shows the natural chain unless it says otherwise.
UniProt P63241: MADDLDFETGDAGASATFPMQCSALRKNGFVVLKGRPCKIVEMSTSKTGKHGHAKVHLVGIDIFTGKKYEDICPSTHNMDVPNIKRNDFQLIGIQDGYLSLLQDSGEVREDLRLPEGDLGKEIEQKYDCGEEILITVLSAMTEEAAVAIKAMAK
UniProt Q9ESJ0: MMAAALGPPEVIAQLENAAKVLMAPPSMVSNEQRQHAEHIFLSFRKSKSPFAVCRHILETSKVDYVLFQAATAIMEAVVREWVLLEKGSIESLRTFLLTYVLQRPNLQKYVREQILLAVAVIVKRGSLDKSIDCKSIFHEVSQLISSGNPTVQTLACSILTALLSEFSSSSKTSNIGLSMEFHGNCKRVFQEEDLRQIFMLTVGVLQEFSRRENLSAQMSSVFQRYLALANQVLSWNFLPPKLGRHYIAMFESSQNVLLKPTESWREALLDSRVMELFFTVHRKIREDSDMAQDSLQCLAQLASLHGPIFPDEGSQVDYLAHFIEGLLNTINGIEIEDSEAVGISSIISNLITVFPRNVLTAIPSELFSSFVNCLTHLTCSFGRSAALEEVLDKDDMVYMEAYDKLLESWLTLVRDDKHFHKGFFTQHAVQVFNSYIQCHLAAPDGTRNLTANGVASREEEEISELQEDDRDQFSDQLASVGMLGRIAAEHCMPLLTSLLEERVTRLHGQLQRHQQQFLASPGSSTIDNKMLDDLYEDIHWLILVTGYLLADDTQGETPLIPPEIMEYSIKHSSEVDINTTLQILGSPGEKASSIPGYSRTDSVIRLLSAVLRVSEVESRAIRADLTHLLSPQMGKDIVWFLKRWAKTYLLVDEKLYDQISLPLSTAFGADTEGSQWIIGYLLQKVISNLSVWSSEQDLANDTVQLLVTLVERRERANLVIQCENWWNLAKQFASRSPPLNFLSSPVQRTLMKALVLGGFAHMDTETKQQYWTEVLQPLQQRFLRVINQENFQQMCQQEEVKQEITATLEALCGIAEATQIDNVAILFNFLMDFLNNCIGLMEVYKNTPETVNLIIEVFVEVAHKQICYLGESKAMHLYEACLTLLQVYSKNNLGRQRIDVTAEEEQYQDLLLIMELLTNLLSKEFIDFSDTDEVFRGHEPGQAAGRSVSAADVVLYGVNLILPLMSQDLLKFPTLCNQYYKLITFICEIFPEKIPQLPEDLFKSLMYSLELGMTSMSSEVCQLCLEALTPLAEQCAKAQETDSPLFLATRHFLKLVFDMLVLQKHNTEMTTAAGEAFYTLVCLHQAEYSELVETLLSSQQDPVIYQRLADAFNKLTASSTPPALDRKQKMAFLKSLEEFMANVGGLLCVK

Columns and labels:
[1] = target: ZZ-bdSUMO-tagged eIF5A H51A (not stated (human or S. cerevisiae eIF5A made)) (UniProt P63241); test: pull-down; 1 µM NTR and RanGTP with 0.75 µM ZZ-bdSUMO-tagged eIF5A wild type or mutants; 20 mM Tris/HCl pH 7.7, 100 mM NaCl (legend: 50 mM NaCl), 2 mM MgOAc, 2 mM DTT; retrieved via tagged eIF5A by anti-Protein A beads, eluted by bdSENP1 protease, SDS-PAGE and Coomassie; both purified
[2] = target: ZZ-bdSUMO-tagged eIF5A K50A (not stated (human or S. cerevisiae eIF5A made)) (UniProt P63241); test: as above
[3] = target: ZZ-bdSUMO-tagged eIF5A R62E (not stated (human or S. cerevisiae eIF5A made)) (UniProt P63241); test: as above
[4] = target: ZZ-bdSUMO-tagged eIF5A S75R (not stated (human or S. cerevisiae eIF5A made)) (UniProt P63241); test: as above
[5] = target: ZZ-bdSUMO-tagged eIF5A wild type (not stated (human or S. cerevisiae eIF5A made)) (UniProt P63241); test: as above
[6] = target: T1, Pdr6/Kap122 (S. cerevisiae), full length, tag removed (S. cerevisiae) (UniProt P32767); test: crystal structure; RanGTP•Pdr6•eIF5A, 18°C, microseeding, 100 mM sodium acetate pH 5.3, 30% PEG 300; both purified
T1 sequence: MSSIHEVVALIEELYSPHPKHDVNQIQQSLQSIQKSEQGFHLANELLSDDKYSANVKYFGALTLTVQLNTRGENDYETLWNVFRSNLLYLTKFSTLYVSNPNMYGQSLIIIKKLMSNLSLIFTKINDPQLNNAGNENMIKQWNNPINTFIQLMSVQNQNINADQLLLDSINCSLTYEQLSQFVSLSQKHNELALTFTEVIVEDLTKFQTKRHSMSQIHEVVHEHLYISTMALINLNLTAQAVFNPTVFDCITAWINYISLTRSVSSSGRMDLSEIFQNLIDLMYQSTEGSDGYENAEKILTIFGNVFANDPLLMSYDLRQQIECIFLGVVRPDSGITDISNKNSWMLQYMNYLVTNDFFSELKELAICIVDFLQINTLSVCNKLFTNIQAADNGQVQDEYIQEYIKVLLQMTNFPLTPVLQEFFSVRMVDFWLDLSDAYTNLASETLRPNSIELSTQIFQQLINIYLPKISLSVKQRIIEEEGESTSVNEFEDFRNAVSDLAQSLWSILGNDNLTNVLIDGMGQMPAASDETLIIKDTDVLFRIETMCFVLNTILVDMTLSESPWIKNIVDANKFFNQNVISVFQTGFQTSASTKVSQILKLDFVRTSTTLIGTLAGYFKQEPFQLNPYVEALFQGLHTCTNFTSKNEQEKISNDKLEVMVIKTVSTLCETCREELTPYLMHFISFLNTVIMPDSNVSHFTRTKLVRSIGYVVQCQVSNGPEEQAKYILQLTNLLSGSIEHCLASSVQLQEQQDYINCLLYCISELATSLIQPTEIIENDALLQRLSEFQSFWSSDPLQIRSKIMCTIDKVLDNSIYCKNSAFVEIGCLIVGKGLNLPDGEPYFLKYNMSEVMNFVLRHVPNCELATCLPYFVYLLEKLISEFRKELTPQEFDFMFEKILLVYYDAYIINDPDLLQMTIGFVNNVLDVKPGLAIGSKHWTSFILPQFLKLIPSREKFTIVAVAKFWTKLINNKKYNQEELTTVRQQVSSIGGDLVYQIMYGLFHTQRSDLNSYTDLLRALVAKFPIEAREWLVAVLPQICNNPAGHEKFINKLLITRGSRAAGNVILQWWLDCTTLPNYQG

[7] = target: ZZ-bdSUMO-tagged eIF5A E42R (not stated (human or S. cerevisiae eIF5A made)) (UniProt P63241); test: pull-down; 1 µM NTR and RanGTP with 0.75 µM ZZ-bdSUMO-tagged eIF5A wild type or mutants; 20 mM Tris/HCl pH 7.7, 100 mM NaCl (legend: 50 mM NaCl), 2 mM MgOAc, 2 mM DTT; retrieved via tagged eIF5A by anti-Protein A beads, eluted by bdSENP1 protease, SDS-PAGE and Coomassie; both purified
[8] = target: T2, H14-ZZ-bdSUMO-tagged Pdr6 (S. cerevisiae) (UniProt P32767); test: pull-down; 1 µM H14-ZZ-bdSUMO-tagged NTR with 2 µM human or yeast eIF5A in the presence of 2 µM RanGTP; retrieved via the tagged NTR by anti-Protein A beads, eluted by bdSENP1 protease, SDS-PAGE and Coomassie; both purified
T2 sequence: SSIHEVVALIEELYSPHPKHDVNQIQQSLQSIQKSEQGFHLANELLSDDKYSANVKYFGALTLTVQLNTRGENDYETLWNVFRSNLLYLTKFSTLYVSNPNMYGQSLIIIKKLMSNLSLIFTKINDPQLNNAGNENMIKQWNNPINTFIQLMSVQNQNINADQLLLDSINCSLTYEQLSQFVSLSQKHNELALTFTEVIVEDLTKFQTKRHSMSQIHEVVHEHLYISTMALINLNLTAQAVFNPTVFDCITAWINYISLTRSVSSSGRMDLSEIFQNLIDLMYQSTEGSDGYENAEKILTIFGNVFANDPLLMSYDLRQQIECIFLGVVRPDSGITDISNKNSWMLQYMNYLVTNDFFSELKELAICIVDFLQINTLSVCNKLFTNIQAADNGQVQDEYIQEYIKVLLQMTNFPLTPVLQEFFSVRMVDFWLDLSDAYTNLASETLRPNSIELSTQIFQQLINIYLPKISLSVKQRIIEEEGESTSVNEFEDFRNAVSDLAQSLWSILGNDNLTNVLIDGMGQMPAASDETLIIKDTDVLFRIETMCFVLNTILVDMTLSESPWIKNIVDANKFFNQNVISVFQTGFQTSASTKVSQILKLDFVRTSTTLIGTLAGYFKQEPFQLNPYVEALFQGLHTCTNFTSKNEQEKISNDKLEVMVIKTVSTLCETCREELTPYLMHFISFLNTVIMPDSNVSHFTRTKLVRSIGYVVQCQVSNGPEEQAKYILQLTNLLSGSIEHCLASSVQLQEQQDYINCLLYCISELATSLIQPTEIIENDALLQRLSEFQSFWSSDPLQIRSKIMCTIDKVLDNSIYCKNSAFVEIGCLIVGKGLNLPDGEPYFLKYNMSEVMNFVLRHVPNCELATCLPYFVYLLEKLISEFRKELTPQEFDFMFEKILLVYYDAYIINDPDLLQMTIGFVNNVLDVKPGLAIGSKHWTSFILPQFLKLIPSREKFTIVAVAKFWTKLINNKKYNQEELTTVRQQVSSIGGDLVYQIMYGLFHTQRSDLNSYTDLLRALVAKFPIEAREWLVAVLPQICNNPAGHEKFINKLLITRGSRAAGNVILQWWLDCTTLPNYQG

Pdr6/Kap122 (S. cerevisiae), full length, tag removed (from UniProt P32767 1-1081)
binding [1]: binds | binding [2]: binds | binding [3]: binds | binding [4]: binds | binding [5]: binds

S. cerevisiae eIF5A lacking its 15 N-terminal residues, nonmodified form (domain or fragment)
binding [6]: binds

mouse Xpo4 (NTR of the eIF5A mutant tests) (from UniProt Q9ESJ0 1-1151)
binding [7]: binds | binding [1]: no binding (tested: 1 µM NTR and RanGTP, 0.75 µM eIF5A) | binding [3]: no binding (tested: 1 µM NTR and RanGTP, 0.75 µM eIF5A) | binding [4]: no binding (tested: 1 µM NTR and RanGTP, 0.75 µM eIF5A)

yeast eIF5A (eIF5A compatibility assay) (S. cerevisiae)
binding [8]: binds
